Measured data: PubChem BioAssay AID1159592 (NIAID, 2016)

Aim: 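Gene knock-downs altering NF-kB activation in reporter macrophages given R848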
Cells: RAW264.7 macrophages from mouse bearing reporters for p65 (GFP) and the Tnf promoter (mCherry)
Reagents: single siRNA against mouse genes
Duration: 48 to 72 hours after siRNA transfection
Treatment: R848 TLR ligand for 40 minutes before fixation; dose not given
Measured: 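Nuclear over cytoplasmic GFP-p65 signal imaged 40 minutes after R848, plate-normalised by median and MAD, given as robust z versus negative controls, mean of replicates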
Scale: NF-kB translocation z-score: higher = more p65 moved into the nucleus than in negative-control wells
Hit rule: 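Active when the replicate-mean z lies above 1.5 or below -1.5; the depositor also grades absolute z in steps of 1, 1.5, 2 and 2.5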
Meaning of the calls: active = strong change, either direction; inactive = little change
In all, the deposit lists 756 reagents; below is a random part of them. 147 of them (19%) were called active. 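Active covers both loss and gain of p65 entry; negative z means weaker NF-kB activation, positive means more nuclear p65.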 Reagents against one gene are numbered here. Reagent sequences are not shown. The record does not give: the amount of reagent.

| target | siRNA no. | NF-kB translocation z-score, replicate mean | Outcome |
| --- | --- | --- | --- |
| Fos | 1 | -0.606 | inactive |
| Fos | 2 | -0.859 | inactive |
| Fos | 3 | -0.817 | inactive |
| Fos | 4 | -0.379 | inactive |
| Fos | 5 | -0.622 | inactive |
| Fos | 6 | -0.352 | inactive |
| Cxcl11 | 1 | -0.701 | inactive |
| Cxcl11 | 2 | 1.15 | inactive |
| Cxcl11 | 3 | -0.306 | inactive |
| Cxcl11 | 4 | -0.115 | inactive |
| Cxcl11 | 5 | -2.5 | active |
| Cxcl11 | 6 | -1.18 | inactive |
| Mapk14 | 1 | 1.45 | inactive |
| Mapk14 | 2 | 0.299 | inactive |
| Mapk14 | 3 | 0.21 | inactive |
| Mapk14 | 4 | -0.895 | inactive |
| Mapk14 | 5 | -1.67 | active |
| Mapk14 | 6 | -0.795 | inactive |
| Cd180 | 1 | -2.97 | active |
| Cd180 | 2 | 0.588 | inactive |
| Cd180 | 3 | 1.15 | inactive |
| Cd180 | 4 | 1.64 | active |
| Cd180 | 5 | -2.04 | active |
| Cd180 | 6 | -0.246 | inactive |
| Irak3 | 1 | -1.1 | inactive |
| Irak3 | 2 | -1.48 | inactive |
| Irak3 | 3 | -0.462 | inactive |
| Irak3 | 4 | -0.77 | inactive |
| Irak3 | 5 | -1.64 | active |
| Irak3 | 6 | -0.199 | inactive |

Targets above whose target name begins with I or i:
| target | siRNA no. | NF-kB translocation z-score, replicate mean | Outcome |
| --- | --- | --- | --- |
| Irak3 | 1 | -1.1 | inactive |
| Irak3 | 2 | -1.48 | inactive |
| Irak3 | 3 | -0.462 | inactive |
| Irak3 | 4 | -0.77 | inactive |
| Irak3 | 5 | -1.64 | active |
| Irak3 | 6 | -0.199 | inactive |

Continued.
| target | siRNA no. | NF-kB translocation z-score, replicate mean | Outcome |
| --- | --- | --- | --- |
| Akt1 | 1 | -1.4 | inactive |
| Akt1 | 2 | -2.69 | active |
| Akt1 | 3 | 0.741 | inactive |
| Akt1 | 4 | -0.36 | inactive |
| Akt1 | 5 | -1.36 | inactive |
| Akt1 | 6 | -1.22 | inactive |
| Ripk1 | 1 | -1.46 | inactive |
| Ripk1 | 2 | 1.03 | inactive |
| Ripk1 | 3 | 0.962 | inactive |
| Ripk1 | 4 | -0.52 | inactive |
| Ripk1 | 5 | -1.09 | inactive |
| Ripk1 | 6 | 0.585 | inactive |
| Ly86 | 1 | 0.448 | inactive |
| Ly86 | 2 | -1.87 | active |
| Ly86 | 3 | -0.13 | inactive |
| Ly86 | 4 | -1.19 | inactive |
| Ly86 | 5 | 1.14 | inactive |
| Ly86 | 6 | 0.67 | inactive |
| Otud5 | 1 | -0.358 | inactive |
| Otud5 | 2 | -0.0686 | inactive |
| Otud5 | 3 | 0.419 | inactive |
| Otud5 | 4 | 0.317 | inactive |
| Otud5 | 5 | -1.14 | inactive |
| Otud5 | 6 | -0.254 | inactive |
| Mapk9 | 1 | -0.884 | inactive |
| Mapk9 | 2 | -0.00345 | inactive |
| Mapk9 | 3 | -0.62 | inactive |
| Mapk9 | 4 | 0.18 | inactive |
| Mapk9 | 5 | -0.693 | inactive |
| Mapk9 | 6 | 0.334 | inactive |
| Mapk1 | 1 | -0.772 | inactive |
| Mapk1 | 2 | -2.49 | active |
| Mapk1 | 3 | -1.3 | inactive |
| Mapk1 | 4 | 0.00527 | inactive |
| Mapk1 | 5 | -0.485 | inactive |
| Mapk1 | 6 | -2.44 | active |
| Dusp2 | 1 | -0.546 | inactive |
| Dusp2 | 2 | 0.321 | inactive |
| Dusp2 | 3 | -0.756 | inactive |
| Dusp2 | 4 | 0.082 | inactive |
| Dusp2 | 5 | -1.05 | inactive |
| Dusp2 | 6 | -0.399 | inactive |
| Map3k8 | 1 | -0.4 | inactive |
| Map3k8 | 2 | 0.122 | inactive |
| Map3k8 | 3 | -0.225 | inactive |
| Map3k8 | 4 | 0.101 | inactive |
| Map3k8 | 5 | 0.711 | inactive |
| Map3k8 | 6 | 0.273 | inactive |
